Assay results reported in patent US20220049016A1.
These are yes or no findings as the source states them, for the method shown. Some entries that bind do so weakly or less than the wild type.

Sequences of proteins named here, by UniProt entry; tags and fusion partners are left off. Residues count along the entry.
UniProt Q15046, residues 1-72: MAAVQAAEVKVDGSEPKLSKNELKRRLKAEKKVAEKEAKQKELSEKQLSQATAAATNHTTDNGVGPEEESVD

Target: GST-conjugated KRS (1-72) peptide (human) (UniProt Q15046)
Test: flow cytometry of yeast-displayed clones with GST-KRS (1-72)

binding: binds
B1: N3-8 clone displayed on yeast (Fab, V domains shown)
VH: EVQLLESGGGLVQPGGSLRLSCAASGFTFSSYDMSWVRQAPGKGLEWVSAISPYSGRIYYADSVKGRFTISRDNSKNTLYLQMNSLRAEDTAVYYCARMALDFDYWGQGTLVTVSS
VL: QSVLTQPPSASGTPGQRVTISCTGSSSNIGSNYVTWYQQLPGTAPKLLIYDNSNRPSGVPDRFSGSKSGTSASLAISGLQSEDEADYYCSSFSDELGAYVFGGGTKLTVL
